# In all, about 410,000 compounds went through this assay and about 18,000 (4.4%) were called active. The inconclusive results got no clear call from the source; some entries with a clear call stand among them for comparison. Cut-off read from the data, not from the text of the source: active = activity change below about -60%; inconclusive = no clear call, values can overlap the other calls; inactive = above about -39%.
# Test: qHTS Assay for inhibitors of the human cytomegalovirus (HCMV)
# Details: HFF cells, HCMV-luciferase reporter, 72 h; at 57.5 µM; stronger effect = lower value
# In short: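 Luciferase read-out from HCMV-luciferase-infected HFFs (MOI 1 PFU/cell) 72 h post infection at 37C; compounds added after 16 h cell attachment; activity normalized between buffer-only basal and Salinomycin (10uM) inhibitor controls.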
# % is set by controls: 0 for no effect and ±100 for the full control effect.
row,Compound,"activity change, negative = inhibition"
1,CCOC(=O)c1cc(-c2ccccc2)n(CC(=O)NC(C)(C)C)c1C,inconclusive: -55.2%
2,Cc1ccc(S(=O)(=O)N2CCCCC2)cc1NC(=O)CCCOc1ccccc1,inactive: -6.16%
3,COC(=O)c1ccc(/C=C2\SC(=S)N(CCCC(=O)NCCCN3CCOCC3)C2=O)cc1,inconclusive: -52.4%
4,O=C(c1ccco1)N1CCN(C(=O)c2cccc3c2C(=O)N(C2CCCCC2)C3)CC1,inactive: -32.6%
5,COC(CNC(=O)c1c[nH]c2ccc(S(=O)(=O)N(C)c3ccc(F)cc3)cc2c1=O)OC,inconclusive: -50.5%
6,CCN=c1scc(C)n1/N=C/c1cc(Br)c(O)c(Br)c1,inconclusive: -58.8%
7,Cc1nc(-n2nnc3ccccc32)c2c3c(sc2n1)CCCC3,inconclusive: -41.2%
8,CNCC(O)C(O)C(O)C(O)CO (stereo not given),inactive: 25.1%
9,CN(CC(=O)Nc1ccc(OC(F)(F)F)cc1)C(=O)Cc1c(Cl)cccc1Cl,inactive: -16.4%
10,Cc1ccnc(NS(=O)(=O)c2ccc(NC(=O)CCS(=O)(=O)c3ccccc3)cc2)n1,inconclusive: -50.8%
11,C=C(C)Cn1c(NCCC)nc2c1c(=O)n(C)c(=O)n2C,inconclusive: -41.3%
12,Cn1nnnc1SCC(=O)Nc1ccc(N2CCOCC2)cc1,inconclusive: -42.8%
13,CC(CNC(=O)CCc1nnc2ccc(N3CCC4(CC3)OCCO4)nn12)c1ccccc1 (stereo not given),inactive: -24.4%
14,CCC1CCCCN1CC(O)COCc1cccc(OC)c1 (stereo not given),inconclusive: -43.4%
15,Cc1ccc(/C=N/NC(=O)CNC(=O)COc2ccccc2)o1,inconclusive: -44.2%
16,COc1cccc(-c2ccc(NC(=O)C3CCCN(Cc4cnc(C)s4)C3)cc2)c1 (stereo not given),inconclusive: -51.4%
17,O=C(NCCSCc1c(F)cccc1Cl)c1ccc(CN2CCOCC2)cc1,active: -63.1%
18,CCCCOC(=O)c1ccc(NC(=O)c2c(OC)cccc2OC)cc1,inactive: -26.6%
19,COc1cc(S(=O)(=O)N(Cc2ccc(C)cc2)C2CCCCC2)ccc1-n1cnnn1,inactive: -35.7%
20,Cc1cc(-c2ccc(C)c(S(=O)(=O)N3CCC(C)CC3)c2)on1,inactive: 0%
21,N#Cc1ccc(Cn2c(-c3ccc(F)cc3)noc2=O)cc1,inconclusive: -44.7%
22,O=C(O)/C=C\C(=O)Nc1ccccc1F,inconclusive: -49.6%
23,CC(=O)N1c2ccc(S(=O)(=O)N3CCCCCC3)cc2CC1C(=O)NC(C)C (stereo not given),active: -85%
24,CCN(Cc1ccncc1)C(=O)CSc1ccc2ccccc2c1,inconclusive: -57.7%
25,Cc1nc(-c2ccccc2)sc1C(=O)Nc1ccc(S(N)(=O)=O)cc1,inconclusive: -46.4%

# Some of the entries so far, with tabs.
row	Compound	activity change, negative = inhibition
4	O=C(c1ccco1)N1CCN(C(=O)c2cccc3c2C(=O)N(C2CCCCC2)C3)CC1	inactive: -32.6%
23	CC(=O)N1c2ccc(S(=O)(=O)N3CCCCCC3)cc2CC1C(=O)NC(C)C (stereo not given)	active: -85%
